Measured values: patent US20190240171

Key:
[1] = biological target: T1, ATF4 (UniProt Q06507); test: binding assay; conditions: ChIP-PCR, E15.5 WT and C10-ATF4 limbs; the exact amplicon is not stated, SEQ 2 is the reported ATF4 peak region; protein in cells
T1 sequence (looked up, limits assumed): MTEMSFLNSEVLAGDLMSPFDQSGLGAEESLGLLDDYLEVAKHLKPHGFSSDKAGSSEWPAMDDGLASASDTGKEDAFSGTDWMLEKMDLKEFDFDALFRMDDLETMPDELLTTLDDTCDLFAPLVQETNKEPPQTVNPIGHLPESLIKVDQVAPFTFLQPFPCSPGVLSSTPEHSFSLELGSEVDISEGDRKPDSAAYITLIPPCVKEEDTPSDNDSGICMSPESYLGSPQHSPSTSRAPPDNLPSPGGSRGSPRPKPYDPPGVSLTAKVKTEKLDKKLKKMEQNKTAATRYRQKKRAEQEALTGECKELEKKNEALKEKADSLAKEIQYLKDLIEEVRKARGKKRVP

[2] = biological target: T1, ATF4; test: activity in cells; conditions: luciferase reporter transactivation, ATDC5 cells; motif-containing Sox9 promoter; protein in cells

**Q.** Does “GTCACCCAAACATTTGCTTCCAAAAGACCATTTCTAAGCACTTTTTTTGGAAGCCGGCAGACTCCAGGCGCAGAAGCCCAGCTCCGCTTTGACGAGCAGCTGTTGCAATTTCCATTGCTGTAAACGCCAGCGAAGTCCCGGGTACCAC (double strand)” bind [1]?
**A.** binds

**Q.** What about the “activity on this sequence” value [2] of the same sequence?
**A.** active

For some assays here: Results from cells or extracts need not show a direct contact. Where a protein sequence is shown, tags need not be part of it. For some assays here: The exact form of at least one protein or probe is not confirmed.
